Values from PubChem BioAssay AID1259424 (University of Nebraska Medical Center, 2018).
Test: 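Rank knockdowns across the genome by resemblance to the KSR1 depletion profile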 (primary screen). System: human HCT116 colon cancer cells. Knock-down reagent: siRNA pool against human genes, 50 nM. Detection: 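Six signature mRNAs by branched-DNA multiplex assay, scaled to two housekeeping genes and non-targeting median, log2; matched to mean KSR1 knockdown profile by Pearson correlation and euclidean distance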. Scale: mean correlation with KSR1 profile and KSR1 correlation: higher = expression change more like KSR1 knockdown; mean distance from KSR1 profile: higher = expression change less like KSR1 knockdown.
This is one part, drawn at random, of about 14,000 reagents. 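Higher correlation or smaller distance means closer resemblance to KSR1 loss; control wells, including KSR1 knockdowns, recur on many plates.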 Not all columns of the deposit are shown. Reagent sequences are not shown. Not given: the time to read-out.

Gene	mean correlation with KSR1 profile	mean distance from KSR1 profile	KSR1 correlation, replicate 1	KSR1 correlation, replicate 2
SNAPIN	-0.185	2.53	0.235	-0.397
LILRA1	-0.529	3.74	-0.465	-0.57
F2	-0.05	1.26	-0.419	0.41
TRIM16	-0.364	2.2	-0.09	-0.789
DENND11	-0.00314	2.69	0.0418	-0.151
ADAMTS17	-0.616	4.15	-0.574	-0.63
HMGA1	-0.097	2.34	-0.0239	0.0507
SH3GL3	-0.478	5.18	-0.416	-0.468
FYB1	0.0384	2.66	0.0121	-0.0367
LY6E	-0.287	2.84	-0.462	-0.519
NXPH2	-0.907	3.97	-0.922	-0.814
FGFR1	0.837	3.8	0.652	0.692
MSMO1	0.785	2.13	0.822	0.716
EIF2B5	-0.205	3.72	0.088	0.0501
ZNF154	-0.355	1.79	-0.205	-0.249
PIPOX	-0.566	1.97	-0.637	-0.258
C14orf132	-0.904	2.64	-0.75	-0.311
ZMYM3	-0.0571	3.26	0.0883	0.0607
FBL	-0.577	3.06	-0.656	-0.687
SLC17A6	-0.687	1.93	-0.694	-0.51
GTF2B	0.132	1.57	0.304	0.203
GPR65	0.724	1.24	0.64	0.682
C8B	0.0265	2.89	-0.117	0.171
CSE1L	0.234	1.84	0.074	0.142
ATG3	-0.116	1.66	-0.0443	-0.285
RALGAPA2	-0.0474	2.22	0.343	-0.229
PIF1	0.732	1.15	0.686	0.721
PGC	-0.581	3.02	-0.463	-0.529
CD44	-0.187	1.79	0.105	-0.368
MUTYH	-0.806	2.15	-0.455	-0.561
ST3GAL1	0.387	3.07	0.18	0.49
PTBP1	-0.767	2.27	-0.786	-0.867
KLHL12	0.0503	1.23	-0.183	0.032
RNASET2	0.56	1.53	0.388	0.63
RPLP0	-0.246	1.22	-0.534	-0.0859
BLK	0.242	2.91	0.299	-0.389
MOK	0.485	2.05	0.494	0.598
PRKAG2	-0.147	2.41	-0.398	0.0744
UCK1	0.0598	1.67	0.334	0.0504
CAPN15	0.0889	2.01	-0.0626	-0.226
FA2H	-0.527	2.62	-0.651	-0.64
C2CD2L	-0.18	2.54	-0.0993	-0.394
SLC25A6	0.121	2.32	0.288	-0.225
CNOT10	-0.126	3.74	0.000909	-0.496
CSNK1A1L	-0.278	3.67	-0.125	-0.117
LIG4	-0.294	2.02	-0.238	-0.391
INTS3	-0.794	5.53	-0.401	-0.692
PSMB3	-0.145	4.67	-0.0634	-0.118
RBBP8	-0.0519	4.51	-0.0484	-0.00381
NADK	0.0891	2.09	0.191	-0.101

5 neighbouring records from above:
Gene	mean correlation with KSR1 profile	mean distance from KSR1 profile	KSR1 correlation, replicate 1	KSR1 correlation, replicate 2
RALGAPA2	-0.0474	2.22	0.343	-0.229
PIF1	0.732	1.15	0.686	0.721
PGC	-0.581	3.02	-0.463	-0.529
CD44	-0.187	1.79	0.105	-0.368
MUTYH	-0.806	2.15	-0.455	-0.561
